Binding data for four molecules are collected here from paper PMC7409020, “Tumor-Targeting Peptides: The Functional Screen of Glioblastoma Homing Peptides to the Target Protein FABP3 (MDGI)” (Cancers, 2020).

By UniProt entry, the sequences of proteins in these tests, tags left out.
UniProt P05413: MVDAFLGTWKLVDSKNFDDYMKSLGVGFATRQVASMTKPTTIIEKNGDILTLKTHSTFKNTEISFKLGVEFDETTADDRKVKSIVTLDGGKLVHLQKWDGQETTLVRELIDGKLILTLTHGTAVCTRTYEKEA

Results are given in words; binding and its absence hold for the method and conditions named. Some results given as binding are weak or reduced against the parent protein; the word gives no strength.

In the experiment the target is FABP3/MDGI-GFP fusion protein in U87MG glioblastoma cells (UniProt P05413). In words: fluorescence microscopy of labelled peptide on cells; TAMRA-labelled peptides at 1 µg/mL in serum-free medium for 60 min on U87MG cells expressing FABP3-GFP or GFP, washed, fixed with PFA, imaged; binding and internalisation; only the binder purified.
For CVAALNADG (TAMRA on the N-terminus) [TAMRA-Negative control], the binding entry was “no binding (tested: 1 µg/mL)”.

As to ACGLSGLGVAK (5(6)-carboxytetramethylrhodamine (TAMRA) on the N-terminus; C-terminal amide) [TAMRA-A-CooP-K], the binding entry is “binds”. Turning to ACGLSGLGVA (5(6)-carboxytetramethylrhodamine (TAMRA) on the N-terminus; C-terminal amide) [TAMRA-A-CooP], the binding result was “binds”. Regarding ACGLSALGVA (5(6)-carboxytetramethylrhodamine (TAMRA) on the N-terminus; C-terminal amide) [TAMRA- A-[Ala^5]CooP], the binding result was “no binding (tested: 1 µg/mL)”.
